Laboratory results from the supplement of paper PMC8728848.
The other results are listed elsewhere or left out.

Legend:
Assay in all cases: glycan array binding signal (z-score within array); higher = stronger binding
Settings in all cases: glycan notation: IUPAC condensed, linker removed
[1] = target: Fuc(a1-2)Gal(b1-4)GlcNAc(b1-3)Gal(b1-4)GlcNAc(b1-3)Gal(b1-4)GlcNAc
Procedure, shortened: (§1)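 Columns mapping to the same glycan were averaged after glycan names were converted to IUPAC-condensed notation. The data come from 3228 arrays in the Consortium for Functional Glycomics database, limited to those with an available protein sequence. Binding is reported as a within-array Z-score averaged across arrays of one protein sequence and across linkers.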

[2] = target: Fuc(a1-2)Gal(b1-4)GlcNAc(b1-3)GalNAc
Procedure, shortened: as §1

[3] = target: Fuc(a1-2)Gal(b1-4)GlcNAc(b1-3)[Fuc(a1-2)Gal(b1-4)GlcNAc(b1-6)]GalNAc
Procedure, shortened: as §1

[4] = target: Fuc(a1-2)Gal(b1-4)GlcNAc(b1-3)[Fuc(a1-3)[Gal(b1-4)]GlcNAc(b1-6)]Gal(b1-4)Glc
Procedure, shortened: as §1

[5] = target: Fuc(a1-2)Gal(b1-4)GlcNAc(b1-6)GalNAc
Procedure, shortened: as §1

[6] = target: Fuc(a1-2)Gal(b1-4)GlcNAc6S
Procedure, shortened: as §1

[7] = target: Fuc(a1-2)Gal(b1-4)[Fuc(a1-3)]GlcNAc
Procedure, shortened: as §1

[8] = target: Fuc(a1-2)Gal(b1-4)[Fuc(a1-3)]GlcNAc(b1-2)Man(a1-3)[Fuc(a1-2)Gal(b1-4)[Fuc(a1-3)]GlcNAc(b1-2)Man(a1-6)]Man(b1-4)GlcNAc(b1-4)[Fuc(a1-6)]GlcNAc
Procedure, shortened: as §1

[9] = target: Fuc(a1-2)Gal(b1-4)[Fuc(a1-3)]GlcNAc(b1-2)[Fuc(a1-2)Gal(b1-4)[Fuc(a1-3)]GlcNAc(b1-4)]Man(a1-3)[Fuc(a1-2)Gal(b1-4)[Fuc(a1-3)]GlcNAc(b1-2)Man(a1-6)]Man(b1-4)GlcNAc(b1-4)GlcNAc
Procedure, shortened: as §1

[10] = target: Fuc(a1-2)Gal(b1-4)[Fuc(a1-3)]GlcNAc(b1-3)Gal(b1-4)[Fuc(a1-3)]GlcNAc
Procedure, shortened: as §1

[11] = target: Fuc(a1-2)Gal(b1-4)[Fuc(a1-3)]GlcNAc(b1-3)Gal(b1-4)[Fuc(a1-3)]GlcNAc(b1-3)Gal(b1-4)[Fuc(a1-3)]GlcNAc
Procedure, shortened: as §1

[12] = target: Fuc(a1-2)Gal(b1-4)[Fuc(a1-3)]GlcNAc(b1-3)GalNAc
Procedure, shortened: as §1

[13] = target: Fuc(a1-2)Gal(b1-4)[Fuc(a1-3)]GlcNAc(b1-3)[Neu5Ac(a2-6)Gal(b1-4)GlcNAc(b1-6)]Gal(b1-4)Glc
Procedure, shortened: as §1

[14] = target: Fuc(a1-2)Gal3S(b1-4)GlcNAc
Procedure, shortened: as §1

[15] = target: Fuc(a1-2)Gal6S(b1-3)GlcNAc
Procedure, shortened: as §1

[16] = target: Fuc(a1-2)Gal6S(b1-3)GlcNAc6S
Procedure, shortened: as §1

Fuc(a1-2)Gal6S(b1-4)Glc = target: Fuc(a1-2)Gal6S(b1-4)Glc
Procedure, shortened: as §1

[17] = target: Fuc(a1-2)Gal6S(b1-4)Glc6S
Procedure, shortened: as §1

Fuc(a1-2)[Gal(a1-3)]Gal = target: Fuc(a1-2)[Gal(a1-3)]Gal
Procedure, shortened: as §1

[18] = target: Fuc(a1-2)[Gal(a1-3)]Gal(b1-3)GalNAc
Procedure, shortened: as §1

[19] = target: Fuc(a1-2)[Gal(a1-3)]Gal(b1-3)GalNAc(b1-3)Gal(a1-4)Gal(b1-4)Glc
Procedure, shortened: as §1

[20] = target: Fuc(a1-2)[Gal(a1-3)]Gal(b1-3)GlcNAc
Procedure, shortened: as §1

[21] = target: Fuc(a1-2)[Gal(a1-3)]Gal(b1-3)GlcNAc(b1-2)Man(a1-3)[Fuc(a1-2)[Gal(a1-3)]Gal(b1-3)GlcNAc(b1-2)Man(a1-6)]Man(b1-4)GlcNAc(b1-4)GlcNAc
Procedure, shortened: as §1

[22] = target: Fuc(a1-2)[Gal(a1-3)]Gal(b1-3)GlcNAc(b1-2)Man(a1-3)[Fuc(a1-2)[Gal(a1-3)]Gal(b1-3)GlcNAc(b1-2)Man(a1-6)]Man(b1-4)GlcNAc(b1-4)[Fuc(a1-6)]GlcNAc
Procedure, shortened: as §1

[23] = target: Fuc(a1-2)[Gal(a1-3)]Gal(b1-3)GlcNAc(b1-3)GalNAc
Procedure, shortened: as §1

[24] = target: Fuc(a1-2)[Gal(a1-3)]Gal(b1-3)GlcNAc(b1-6)GalNAc
Procedure, shortened: as §1

[25] = target: Fuc(a1-2)[Gal(a1-3)]Gal(b1-4)Glc
Procedure, shortened: as §1

[26] = target: Fuc(a1-2)[Gal(a1-3)]Gal(b1-4)GlcNAc
Procedure, shortened: as §1

[27] = target: Fuc(a1-2)[Gal(a1-3)]Gal(b1-4)GlcNAc(b1-2)Man
Procedure, shortened: as §1

[28] = target: Fuc(a1-2)[Gal(a1-3)]Gal(b1-4)GlcNAc(b1-2)Man(a1-3)[Fuc(a1-2)[Gal(a1-3)]Gal(b1-4)GlcNAc(b1-2)Man(a1-6)]Man(b1-4)GlcNAc(b1-4)GlcNAc
Procedure, shortened: as §1

B1: Aap lectin (Staphylococcus epidermidis) (protein)
chain: VNLNYSSPFMSLLSMPADSSSNNTKNTIDIPPTTVKGRDNYDFYGRVDIESNPTDLNATNLTRYNYGQPPGTTTAGAVQFKNQVSFDKDFDFNIRVANNRQSNTTGADGWGFMFSKKDGDDFLKNGGILREKGTPSAAGFRIDTGYYNNDPLDKIQKQAGQGYRGYGTFVKNDSQGNTSKVGSGTPSTDFLNYADNTTNDLDGKFHGQKLNNVNLKYNASNQTFTATYAGKTWTATLSELGLSPTDSYNFLVTSS
[1]
  glycan array binding signal (z-score): -0.893
[2]
  glycan array binding signal (z-score): 1.36
[3]
  glycan array binding signal (z-score): 0.749
[4]
  glycan array binding signal (z-score): -0.878
[5]
  glycan array binding signal (z-score): 0.471
[6]
  glycan array binding signal (z-score): -0.682
[7]
  glycan array binding signal (z-score): -0.795
[8]
  glycan array binding signal (z-score): -0.688
[9]
  glycan array binding signal (z-score): -0.784
[10]
  glycan array binding signal (z-score): -0.404
[11]
  glycan array binding signal (z-score): -0.534
[12]
  glycan array binding signal (z-score): 0.934
[13]
  glycan array binding signal (z-score): -0.585
[14]
  glycan array binding signal (z-score): -0.887
[15]
  glycan array binding signal (z-score): 0.089
[16]
  glycan array binding signal (z-score): 0.923
Fuc(a1-2)Gal6S(b1-4)Glc
  glycan array binding signal (z-score): -0.572
[17]
  glycan array binding signal (z-score): 0.261
Fuc(a1-2)[Gal(a1-3)]Gal
  glycan array binding signal (z-score): 0.96
[18]
  glycan array binding signal (z-score): 0.652
[19]
  glycan array binding signal (z-score): -0.514
[20]
  glycan array binding signal (z-score): -0.695
[21]
  glycan array binding signal (z-score): -0.525
[22]
  glycan array binding signal (z-score): 3.02
[23]
  glycan array binding signal (z-score): 0.082
[24]
  glycan array binding signal (z-score): 1.45
[25]
  glycan array binding signal (z-score): 1.2
[26]
  glycan array binding signal (z-score): 3.04
[27]
  glycan array binding signal (z-score): -0.838
[28]
  glycan array binding signal (z-score): 0.077
